# Hit rate of the full screen: of about 300,000 compounds, about 5,400 (1.8%) were called active. The inconclusive results got no clear call from the source; some entries with a clear call stand among them for comparison. The call rests on the fitted dose curve; tested in HEK293 cells. Potencies of inconclusive entries are doubtful fits and often do not repeat.
# Experiment: qHTS for inhibitors of binding or entry into cells for Marburg Virus
# Details: Marburg virus pseudotyped entry inhibition, cell reporter; activity change, negative = inhibition: at 37.8 µM (top of the series) unless noted
# On the % scale 0 is the no-effect control and ±100 the full control effect; potency means the concentration at half of the fitted maximal effect.
SMILES,"activity change, negative = inhibition",Potency
CCOc1ccc(-n2cc(C(=O)Nc3cccc(Cl)c3)c3cc(OC)c(OC)cc3c2=O)cc1,inactive: -27%,–
Cc1cc(C)c2c(CN3CCN(C)CC3)cc(=O)oc2c1,–,"inconclusive: 29.1 µM [activator, single point]"
O=P(c1ccccc1)(c1ccccc1)c1nc(-c2ccc(Cl)cc2)oc1N1CCOCC1,–,"inconclusive: 20.6 µM [inhibitor, single point]"
Cc1ccc2c(CN3CC=C(c4ccccc4)CC3)cc(=O)oc2c1C,inactive: -25.5%,–
CCOC(=O)N1CCN(C(=O)c2ccc(N3C(=O)c4ccccc4C3=O)cc2)CC1,–,"inconclusive: 3.55 µM [activator, full curve, poor fit]"
CCOC(=O)c1ccc(NC(=O)c2c(NC(=O)CCC(=O)O)sc3c2CCCCC3)cc1,–,"inconclusive: 5.62 µM [activator, single point]"
Cc1ccc(C)c(-c2csc(N)c2C(=O)OC(C)C)c1,–,"inconclusive: 20 µM [inhibitor, single point]"
O=C(OCc1cccc(F)c1)c1ccc2c(c1)-c1ccccc1C2=O,inactive: -0.692%,–
CCOC(=O)C(C)n1cnc2c(nnn2-c2ccc(OC)cc2)c1=O (stereo unspecified),inactive: 13.1%,–
O=C(COc1ccc(Cl)cc1Cl)NC(=S)N1CCCc2ccccc21,inactive: 15.8%,–
Cc1cc(NC(=O)c2cccc(F)c2)no1,inactive: 12.9%,–
Cc1ccc(NC2=C(N3CCOCC3)C(=O)c3ccccc3C2=O)cc1,–,"inconclusive: 16.4 µM [inhibitor, single point]"
COC(=O)CC=C[C@@H](C)[C@@H](C=NO[C@H](C)CN1CCCc2nc(C)c(C)cc21)N[S+](=O)([O-])c1ccc(C)cc1,–,"inconclusive: 0.422 µM [inhibitor, full curve, poor fit]"
Cn1c(SCC(N)=O)nnc1-c1cnccn1,inactive: 6.01%,–
CCOC(=O)c1c(NC(=O)CSc2nc3ccccc3s2)sc(C)c1C,–,"inconclusive: 18.3 µM [inhibitor, single point]"
Cc1cccc(C)c1NC(=O)CN(C)C(=O)c1cccc(S(=O)(=O)N2CCN(c3ccccc3)CC2)c1,inactive: -7.16%,–
CC(Sc1nnc(-c2ccccc2)c(-c2ccccc2)n1)C(=O)N1CCc2ccccc21 (stereo unspecified),–,active: 11.2 µM
CSCCOC(=O)COc1ccc(/C=N/NC(=O)c2nn(C)cc2Cl)cc1,inactive: -0.262%,–
Cc1ccc(-c2csc(NC(=O)N3CCOCC3)n2)cc1,–,"inconclusive: 7.08 µM [inhibitor, partial curve]"
COC(=O)c1ccc(COC(=O)c2[nH]c(C)c(C(C)=O)c2C)o1,–,"inconclusive: 10 µM [inhibitor, partial curve, poor fit]"
Cc1cccc(/C(N)=N/OC(=O)c2cccs2)c1,inactive: -18.4%,–
CC(=O)Nc1cccc(NC(=O)c2cc3ccccc3o2)c1,inactive: 25.5%,–
O=C(CNC(=O)c1ccc2c(c1)OCCO2)N/N=C/c1ccco1,inactive: 14.9%,–
COc1ccccc1NC(=O)N1CCCC1C(=O)Nc1ccc(NC(C)=O)cc1 (stereo unspecified),–,"inconclusive: 5.8 µM [inhibitor, full curve, poor fit]"

# Part of the list above, bar-delimited.
SMILES | activity change, negative = inhibition | Potency
CCOC(=O)c1ccc(NC(=O)c2c(NC(=O)CCC(=O)O)sc3c2CCCCC3)cc1 | – | inconclusive: 5.62 µM [activator, single point]
Cc1cc(NC(=O)c2cccc(F)c2)no1 | inactive: 12.9% | –
COC(=O)c1ccc(COC(=O)c2[nH]c(C)c(C(C)=O)c2C)o1 | – | inconclusive: 10 µM [inhibitor, partial curve, poor fit]

# The results go on.

SMILES,"activity change, negative = inhibition",Potency
Cc1cc(C)c(C)c(S(=O)(=O)N2CCC(C(=O)N3CC(C)CC(C)C3)CC2)c1C (stereo unspecified),–,"inconclusive: 22.4 µM [inhibitor, single point]"
Cc1ccc(S(=O)(=O)NCc2ccncc2)c(C)c1C,–,"inconclusive: 0.355 µM [inhibitor, full curve, poor fit]"
O=C(ONC1=NCCCCC1)c1cccc([N+](=O)[O-])c1,–,"inconclusive: 35.5 µM [inhibitor, single point]"
CC(C)(C)c1ccc(OCCCCCCN2CCNCC2)cc1,–,"inconclusive: 7.94 µM [inhibitor, partial curve, poor fit]"
Cc1cc(/C=C(\C#N)C(=O)NCc2cccs2)c(C)[nH]1,inactive: -4.22% [at 14.2 µM],–
CC(C)CC1NC(=O)N(CC(=O)N2c3ccccc3NC(=O)C2(C)C)C1=O (stereo unspecified),–,"inconclusive: 35.5 µM [activator, single point]"
O=S(=O)(c1ccccc1)N1CCC(O)(CSc2ccc(F)cc2)CC1,–,"inconclusive: 8.91 µM [inhibitor, partial curve, poor fit]"
Cc1ccc(C(=O)NCC(=O)NCc2ccc(Cl)cc2)s1,–,"inconclusive: 0.794 µM [inhibitor, full curve, poor fit]"
COC(=O)c1cc(OC)c(OC)cc1NC(=S)N1CCN(C)CC1,–,"inconclusive: 14.6 µM [activator, partial curve, poor fit]"
CCOc1ccc(Nc2c(S(=O)(=O)c3ccc(C)cc3)cnc3cc(OC)c(OC)cc23)cc1,inactive: -22.2% [at 46.1 µM],–
CCCCn1c(NC(C)CC)nc2c1c(=O)[nH]c(=O)n2C (stereo unspecified),inactive: -0.877%,–
O=C(NC1CCCCC1)C(c1ccccc1)N1CCOCC1 (stereo unspecified),–,"inconclusive: 1.26 µM [activator, partial curve, poor fit]"
CCCCCCC(=O)NN1CCN(C)CC1,inactive: 16.4%,–
C/C(=N\NC(=O)c1ccccn1)c1ccc(Cl)cc1,–,"inconclusive: 5.62 µM [inhibitor, single point]"
Cc1noc(C)c1CSc1nc2[nH]ncc2c(=O)n1-c1ccccc1,–,"inconclusive: 0.282 µM [inhibitor, full curve, poor fit]"
COc1ccc(C(=O)NCc2ccc3c(c2)OCO3)cc1,–,"inconclusive: 0.112 µM [inhibitor, full curve, poor fit]"
COc1ccc(NC(=S)NC2CC3CCC2C3)c(OC)c1 (stereo unspecified),inactive: 23.5% [at 46.1 µM],–
CN(C(=O)CSc1nnc(-c2ccc([N+](=O)[O-])cc2)o1)C1CCCCC1,inactive: 4.27% [at 46.1 µM],–
Cc1ccc(C=Nc2cc([N+](=O)[O-])ccc2C)s1,–,"inconclusive: 2 µM [activator, full curve]"
COc1ccc(-n2nc(C(=O)NCC(=O)N3CCC4(CC3)OCCO4)c3ccccc3c2=O)cc1OC,–,"inconclusive: 15.8 µM [inhibitor, single point]"
Cc1ccccc1-c1nc2sc3c(c2c(=O)n1N)CCCC3,–,"inconclusive: 4.47 µM [activator, partial curve, poor fit]"
Cc1ccc(CN2CCSc3ccc(C(=O)Nc4cc(C)cc(C)c4)cc32)cc1,–,"inconclusive: 35.5 µM [inhibitor, single point]"
CCCn1c(SCC(=O)N2c3ccccc3CCc3ccccc32)nc2c1c(=O)n(C)c(=O)n2C,inactive: -20.9%,–
CN(CCCNC(=O)c1ccc(/C=N/O)nc1)CCCN(C)Cc1ccccc1,–,"inconclusive: 14.6 µM [inhibitor, single point]"

SMILES,"activity change, negative = inhibition",Potency
CC(=O)N1CCc2c(sc3nc(SCC(N)=O)n(-c4ccc(F)c(Cl)c4)c(=O)c23)C1,–,"inconclusive: 15.8 µM [activator, single point]"
Cc1ccc(N=Nc2ccc3ccccc3c2O)cc1,–,"inconclusive: 2.82 µM [inhibitor, full curve, poor fit]"
Cc1ccc(Cl)c(NC(=O)COC(=O)c2nn(-c3ccccc3)cc2O)c1Cl,–,"inconclusive: 35.5 µM [inhibitor, partial curve, poor fit]"
CCCCOC(=O)Oc1ccc2c(=O)c(Oc3cc(C)cc(C)c3)coc2c1,–,"inconclusive: 5.62 µM [activator, single point]"
c1ccc(Oc2cc(-c3ccccc3)ncn2)cc1,–,"inconclusive: 35.5 µM [activator, partial curve, poor fit]"
C#CCn1c(S(=O)(=O)Cc2ccc(C)cc2)nc(-c2ccccc2)c1-c1ccccc1,–,active: 4.61 µM
CCOc1cccc(-c2nnc3n2N=C(c2cc(OC)ccc2OC)CS3)c1,–,inactive
CN(C(=O)Nc1cccc([N+](=O)[O-])c1)c1ccccc1,–,"inconclusive: 0.0891 µM [inhibitor, full curve, poor fit]"
Cc1csc(NC(=O)c2nn(C)c(C)c2[N+](=O)[O-])n1,inactive: 40.3%,–
Clc1ccc(OCc2nc(-c3ccc(-n4cccc4)cc3)no2)cc1,inactive: -5.11% [at 46.1 µM],–
CN(C)C(=O)Nc1cnc2ccccc2c1,inactive: 2.56%,–
COCCn1c(N2CCN(c3ccccc3)CC2)nc2c1c(=O)n(C)c(=O)n2C,inactive: 0.357% [at 46.1 µM],–
COc1ccc(C(=O)NCc2nnc(SCC(=O)N3CCc4ccccc43)n2CCc2ccccc2)cc1,–,"inconclusive: 3.98 µM [inhibitor, full curve, poor fit]"
Cc1cc(C)cc(NC(=O)CSc2oc(-c3ccco3)nc2S(=O)(=O)c2ccccc2)c1,inactive: -26.1% [at 46.1 µM],–
CC(C)CN(C(=O)CN(C)C(=O)Cc1ccccc1Cl)c1c(N)n(CC(C)C)c(=O)[nH]c1=O,–,"inconclusive: 22.4 µM [inhibitor, single point]"
CC1CCC(NS(=O)(=O)c2ccc(Cl)s2)CC1 (stereo unspecified),–,"inconclusive: 0.199 µM [inhibitor, full curve, poor fit]"
CCOC(=O)Nc1nnc(-c2ccc(OC)cc2)s1,–,"inconclusive: 14.6 µM [activator, partial curve, poor fit]"
Cn1c(=O)c2c(-c3ccccc3)n(C3CCCCC3)cc2n(C)c1=O,–,"inconclusive: 29.1 µM [inhibitor, single point]"
O=C(COc1ccccc1C(=O)O)Nc1ccc(SC(F)F)cc1,–,"inconclusive: 5.62 µM [activator, single point]"
COc1ccccc1NC(=O)N(Cc1ccco1)Cc1cc2cccc(C)c2[nH]c1=O,–,"inconclusive: 15.8 µM [inhibitor, single point]"
O=C(NCC1CCCO1)c1cc2ccccc2cc1O (stereo unspecified),inactive: -6.98%,–
COc1ccc(/C=N/NC(=O)c2ccc(Cl)cc2)cc1Cn1cc(Cl)cn1,–,"inconclusive: 0.562 µM [inhibitor, full curve, poor fit]"
O=c1ccc(-c2ccc(S(=O)(=O)Nc3ccc(F)cc3)s2)n[nH]1,–,"inconclusive: 35.5 µM [activator, single point]"

# Source: PubChem BioAssay AID540276 (National Center for Advancing Translational Sciences (NCATS), 2011)
